The source of these data is paper PMC8043254.

This experiment has as its target T1, GST-Eps8L2 (human) (UniProt Q9H6S3).
T1 sequence: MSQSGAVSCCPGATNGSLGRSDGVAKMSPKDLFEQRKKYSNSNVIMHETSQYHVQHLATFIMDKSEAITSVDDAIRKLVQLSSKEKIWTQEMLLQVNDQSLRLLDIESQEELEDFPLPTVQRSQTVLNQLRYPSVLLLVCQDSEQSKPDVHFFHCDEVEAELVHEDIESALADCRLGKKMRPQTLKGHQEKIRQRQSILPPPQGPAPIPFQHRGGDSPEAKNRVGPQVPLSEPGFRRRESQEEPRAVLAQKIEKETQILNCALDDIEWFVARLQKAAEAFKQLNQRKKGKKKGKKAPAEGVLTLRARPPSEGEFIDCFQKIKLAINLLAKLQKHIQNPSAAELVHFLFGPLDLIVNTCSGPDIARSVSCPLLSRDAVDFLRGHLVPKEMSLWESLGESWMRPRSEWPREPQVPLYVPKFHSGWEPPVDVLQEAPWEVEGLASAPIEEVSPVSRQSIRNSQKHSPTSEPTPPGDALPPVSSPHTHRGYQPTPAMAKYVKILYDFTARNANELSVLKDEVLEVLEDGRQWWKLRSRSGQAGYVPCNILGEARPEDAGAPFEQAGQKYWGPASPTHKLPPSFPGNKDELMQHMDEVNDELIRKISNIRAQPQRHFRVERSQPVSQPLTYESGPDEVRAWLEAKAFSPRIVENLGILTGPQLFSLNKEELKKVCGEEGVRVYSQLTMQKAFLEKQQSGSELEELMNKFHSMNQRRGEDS
As to the kind of experiment: pull-down; GST-Eps8L2 (20 ug) on glutathione Sepharose beads, eluted His-Ctdnep1_C-ter in solution; 125 mM Tris-HCl, 150 mM NaCl; 3 h at 4°C; both purified.

Results are given in words; binding and its absence hold for the method and conditions named. Binding calls can cover weak binding; strength is not graded here. Where a sequence is shown, tags or fusion partners need not be part of it.

His-Ctdnep1_Cter (domain or fragment): the binding entry is listed as “binds”.
